PubChem BioAssay AID602196 – INSERM – 2012
Purpose: 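Knock-downs that protect lung cancer cells from cisplatin or sensitise them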. Cell system: human A549 lung cancer cells. Reagents: siRNA pair against human genes. Duration: 48 h transfection before cisplatin; time from cisplatin to read-out not stated. Treatment: cisplatin at a dose killing half of control-siRNA cells; exact dose and duration not given. Read-out: 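Cisplatin cell death as a shift from the 50% death seen with control siRNA; siRNAs toxic or growth-blocking alone scored 0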. Direction: two-siRNA summed score (-2 to +2): higher = both siRNAs protect from cisplatin killing; -2 means both sensitise. Active means: 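Each siRNA scores 0 if harmful alone by LDH or WST-1, otherwise +1 if it reduces and -1 if it increases cisplatin killing; a gene is active when both siRNAs agree (sum +2 or -2)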. Meaning of the calls: active = both siRNAs shift cisplatin killing the same way; inactive = no consistent shift, or siRNA harmful alone.
This is a random part of about 23,000 reagents tested. Over the whole deposit, 455 (2%) got an active call. 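Active includes both protection and sensitisation; some change values fall well beyond the stated -50 to +50 range.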 Unmarked entries are inactive. Further read-outs or replicates are left out here. The record does not give: the amount of reagent.

| target gene | PubChem SID | two-siRNA summed score (-2 to +2) |
| --- | --- | --- |
| TIGD5 | SID131515470 | 0 |
| NEIL3 | SID131512417 | 0 |
| PSMD9 | SID131505322 | 0 |
| DDX20 | SID131513215 | 0 |
| RGS16 | SID131504718 | 0 |
| DNM1 | SID131513365 | 0 |
| ZNF257 | SID131509968 | 0 |
| LOC401605 | SID131514141 | 0 |
| LOC400965 (retired record) | SID131515160 | 0 |
| IL13RA2 | SID131522718 | 1 |
| MYADM | SID131505715 | 0 |
| POP5 | SID131510899 | 0 |
| LIM2 | SID131500680 | -1 |
| OR6C70 | SID131502355 | -1 |
| WFDC13 | SID131508239 | 0 |
| IFFO1 | SID131506236 | 0 |
| IL2RB | SID131507809 | 0 |
| ROBO3 | SID131522859 | 1 |
| KIAA1915 | SID131514172 | 0 |
| AWAT1 | SID131517946 | 0 |
| GLIS3 | SID131515137 | 0 |
| REN | SID131517376 | 0 |
| DICER1 | SID131504973 | 0 |
| SETD4 | SID131516119 | 0 |
| OR4M2 | SID131516086 | 0 |
| LOC146439 | SID131506671 | 0 |
| NHSL1 | SID131520218 | 1 |
| ZNF530 | SID131517027 | 0 |
| IPPK | SID131510999 | 0 |
| ZC3HAV1 | SID131513966 | 0 |
| LOC440943 | SID131523090 | 2 (active) |
| CLIC4 | SID131501156 | -1 |
| HOXC12 | SID131511240 | 0 |
| TLCD5 | SID131510097 | 0 |
| CPLX2 | SID131505374 | 0 |
| LOC442776 | SID131514473 | 0 |
| KPNA5 | SID131521365 | 1 |
| CFAP107 | SID131517977 | 0 |
| CSPG5 | SID131509499 | 0 |
| HECW1 | SID131514449 | 0 |
| LOC442744 (retired record) | SID131517423 | 0 |
| SLC16A11 | SID131515643 | 0 |
| LOC440543 | SID131519395 | 1 |
| PVALEF | SID131502994 | 0 |
| SERPINA12 | SID131520828 | 1 |
| LAT2 | SID131505812 | 0 |
| ATP5MJ | SID131509642 | 0 |
| LOC442666 | SID131520505 | 1 |
| EIF3B | SID131518086 | 0 |
| PSMD13 | SID131523164 | 2 (active) |
| MDGA2 | SID131512926 | 0 |
| FAM182A | SID131515834 | 0 |
| PXN | SID131505202 | 0 |
| ATP8A1 | SID131510956 | 0 |
| BRD9 | SID131514323 | 0 |
| LOC284021 | SID131517554 | 0 |
| ERCC1 | SID131517610 | 0 |

Part of the list above, reformatted.
KIAA1915 [SID131514172] → two-siRNA summed score (-2 to +2) = 0
AWAT1 [SID131517946] → two-siRNA summed score (-2 to +2) = 0
GLIS3 [SID131515137] → two-siRNA summed score (-2 to +2) = 0
REN [SID131517376] → two-siRNA summed score (-2 to +2) = 0
DICER1 [SID131504973] → two-siRNA summed score (-2 to +2) = 0
